Measurements reported in PubChem BioAssay AID1224830 (NIAID, 2016)
The deposit covers about 18,000 reagents; below is an unselected part. Of all reagents, about 2,900 (16%) are marked active. 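Calls are made per well; low scores hint the gene aids the LPS response, high scores that it dampens it.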 Repeated entries: four replicate wells of each siRNA pool.

Test: 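Host factors that control LPS-induced TNF expression in human macrophages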 (primary screen)
Cells: human THP-1 monocytic leukaemia cells, TNF dual-luciferase reporter clone, PMA-differentiated to macrophage-like cells
Reagents: siRNA pool against human genes, 50 nM
Time to read-out: LPS for 4 h, given about 3 days after siRNA transfection
Treatment: bacterial LPS (TLR4 ligand), 10 ng/ml
Detection: 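Ratio of firefly to renilla light, scaled to the plate median and expressed as a robust z-score per replicate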
Reading the numbers: TNF reporter robust z-score: higher = stronger TNF reporter response to LPS
Rule for the call: 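Each well counts as active if its z-score is over 2.8 or under -1.5; controls are left without a call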

gene | TNF reporter robust z-score | Call
FAM216A | 0.15 | inactive
FAM216A | -1.19 | inactive
FAM216A | -0.89 | inactive
FAM216A | -0.42 | inactive
C5orf46 | -0.1 | inactive
C5orf46 | 0.95 | inactive
C5orf46 | 1.08 | inactive
C5orf46 | 1.3 | inactive
OCRL | -1.02 | inactive
OCRL | -0.01 | inactive
OCRL | -1.45 | inactive
OCRL | 0.74 | inactive
AKIRIN1 | -1.36 | inactive
AKIRIN1 | -0.56 | inactive
AKIRIN1 | -0.67 | inactive
AKIRIN1 | -0.9 | inactive
CHRNB3 | 0.2 | inactive
CHRNB3 | -0.14 | inactive
CHRNB3 | 0.54 | inactive
CHRNB3 | -1.03 | inactive
EMC10 | 0.43 | inactive
EMC10 | 0.29 | inactive
EMC10 | -0.11 | inactive
EMC10 | 0.88 | inactive
VSTM4 | 0.63 | inactive
VSTM4 | 0.58 | inactive
VSTM4 | 1.35 | inactive
VSTM4 | 1.52 | inactive
PRM3 | -0.72 | inactive
PRM3 | -0.94 | inactive
PRM3 | -1.34 | inactive
PRM3 | -0.69 | inactive
LRRC74A | -0.36 | inactive
LRRC74A | -0.06 | inactive
LRRC74A | 0.2 | inactive
LRRC74A | 0.04 | inactive
FOLH1 | 1.17 | inactive
FOLH1 | -0.72 | inactive
FOLH1 | 0.64 | inactive
FOLH1 | -0.2 | inactive

7 consecutive reagents from above:
gene | TNF reporter robust z-score | Call
AKIRIN1 | -1.36 | inactive
AKIRIN1 | -0.56 | inactive
AKIRIN1 | -0.67 | inactive
AKIRIN1 | -0.9 | inactive
CHRNB3 | 0.2 | inactive
CHRNB3 | -0.14 | inactive
CHRNB3 | 0.54 | inactive

More records follow.
gene | TNF reporter robust z-score | Call
FFAR3 | 0.22 | inactive
FFAR3 | 1.21 | inactive
FFAR3 | 0.67 | inactive
FFAR3 | 0.82 | inactive
RTN1 | 1.67 | inactive
RTN1 | 0.44 | inactive
RTN1 | -0.86 | inactive
RTN1 | -0.43 | inactive
SRRM2 | 1.8 | inactive
SRRM2 | -0.23 | inactive
SRRM2 | -1.03 | inactive
SRRM2 | -0.4 | inactive
RABL2A | -0.21 | inactive
RABL2A | 0.33 | inactive
RABL2A | -0.69 | inactive
RABL2A | 0.06 | inactive
LDLRAP1 | -0.26 | inactive
LDLRAP1 | -0.84 | inactive
LDLRAP1 | -0.4 | inactive
CPLANE1 | 0.84 | inactive
CPLANE1 | 0.71 | inactive
CPLANE1 | -0.71 | inactive
CPLANE1 | 0.03 | inactive
FGR | -0.49 | inactive
FGR | 0.61 | inactive
FGR | 0.62 | inactive
FGR | 1.69 | inactive
OR52K1 | 1.01 | inactive
OR52K1 | 1.64 | inactive
OR52K1 | 0.96 | inactive
OR52K1 | 1.4 | inactive
FAM227B | 0.51 | inactive
FAM227B | 0.26 | inactive
FAM227B | 0.74 | inactive
FAM227B | 0.22 | inactive
